Protein sequences, listed by entry. Tags and fused reporters are not part of them. Lines headed by an entry give the natural chain unless they say otherwise; changes in a name come on top.
UniProt Q4QCG1: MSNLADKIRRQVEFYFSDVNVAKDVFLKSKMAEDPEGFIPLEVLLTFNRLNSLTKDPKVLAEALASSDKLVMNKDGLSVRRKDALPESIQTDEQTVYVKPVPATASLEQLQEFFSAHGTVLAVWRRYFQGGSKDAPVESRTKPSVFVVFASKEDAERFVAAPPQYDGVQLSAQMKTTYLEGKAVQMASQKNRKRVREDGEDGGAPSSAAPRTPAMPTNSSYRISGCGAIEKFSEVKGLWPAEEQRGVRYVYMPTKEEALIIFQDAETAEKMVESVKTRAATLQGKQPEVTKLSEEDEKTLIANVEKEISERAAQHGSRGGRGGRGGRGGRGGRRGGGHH
UniProt Q4Q2T7: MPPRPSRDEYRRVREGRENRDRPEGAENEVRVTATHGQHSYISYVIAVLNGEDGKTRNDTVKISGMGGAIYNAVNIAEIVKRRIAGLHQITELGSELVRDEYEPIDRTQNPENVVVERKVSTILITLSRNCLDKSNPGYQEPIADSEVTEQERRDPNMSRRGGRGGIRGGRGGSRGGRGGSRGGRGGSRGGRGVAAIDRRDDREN
UniProt E9ADT8: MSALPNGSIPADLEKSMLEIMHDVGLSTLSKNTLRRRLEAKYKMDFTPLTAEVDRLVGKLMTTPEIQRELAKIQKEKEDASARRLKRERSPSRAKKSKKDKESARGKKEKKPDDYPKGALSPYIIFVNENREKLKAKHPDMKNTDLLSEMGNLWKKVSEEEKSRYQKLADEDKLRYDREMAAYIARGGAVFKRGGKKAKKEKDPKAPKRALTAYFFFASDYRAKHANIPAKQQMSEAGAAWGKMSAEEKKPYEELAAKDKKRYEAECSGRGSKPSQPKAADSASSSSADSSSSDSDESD
UniProt Q4QF35: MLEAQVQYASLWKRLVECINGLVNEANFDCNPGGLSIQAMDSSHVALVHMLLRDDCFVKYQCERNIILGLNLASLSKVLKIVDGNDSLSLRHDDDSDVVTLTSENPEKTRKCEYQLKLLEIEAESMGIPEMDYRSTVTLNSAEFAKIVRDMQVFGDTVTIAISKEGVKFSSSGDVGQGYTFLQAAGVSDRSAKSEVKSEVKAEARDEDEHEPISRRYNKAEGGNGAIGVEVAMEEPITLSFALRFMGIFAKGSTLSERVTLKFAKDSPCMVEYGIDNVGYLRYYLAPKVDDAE
UniProt E9AFA9: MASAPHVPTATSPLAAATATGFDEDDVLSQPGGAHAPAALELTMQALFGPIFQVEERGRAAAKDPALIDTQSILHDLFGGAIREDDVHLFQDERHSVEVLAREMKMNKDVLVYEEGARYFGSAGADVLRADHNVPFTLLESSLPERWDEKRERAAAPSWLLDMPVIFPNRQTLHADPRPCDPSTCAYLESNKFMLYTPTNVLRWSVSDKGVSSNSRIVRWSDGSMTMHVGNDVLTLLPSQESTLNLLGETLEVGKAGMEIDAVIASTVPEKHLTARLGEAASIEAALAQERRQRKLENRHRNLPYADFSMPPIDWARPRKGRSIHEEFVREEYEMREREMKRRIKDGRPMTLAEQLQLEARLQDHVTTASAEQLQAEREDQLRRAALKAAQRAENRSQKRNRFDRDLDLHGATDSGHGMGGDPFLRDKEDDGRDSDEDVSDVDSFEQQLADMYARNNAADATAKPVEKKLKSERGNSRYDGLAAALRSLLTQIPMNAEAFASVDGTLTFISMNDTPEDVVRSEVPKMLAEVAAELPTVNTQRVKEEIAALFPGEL
UniProt Q4QEA3: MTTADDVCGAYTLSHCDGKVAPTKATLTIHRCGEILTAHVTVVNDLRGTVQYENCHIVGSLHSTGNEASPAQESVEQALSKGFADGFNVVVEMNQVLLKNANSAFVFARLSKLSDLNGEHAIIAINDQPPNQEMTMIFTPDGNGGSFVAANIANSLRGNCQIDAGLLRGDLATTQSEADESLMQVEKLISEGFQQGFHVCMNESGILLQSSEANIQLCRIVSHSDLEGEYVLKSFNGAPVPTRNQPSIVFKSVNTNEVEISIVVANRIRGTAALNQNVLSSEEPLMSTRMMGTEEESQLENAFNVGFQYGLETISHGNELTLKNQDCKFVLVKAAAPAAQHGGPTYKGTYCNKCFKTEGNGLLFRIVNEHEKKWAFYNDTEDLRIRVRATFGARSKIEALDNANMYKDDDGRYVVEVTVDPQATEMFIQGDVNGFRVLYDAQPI
UniProt Q4Q1H0: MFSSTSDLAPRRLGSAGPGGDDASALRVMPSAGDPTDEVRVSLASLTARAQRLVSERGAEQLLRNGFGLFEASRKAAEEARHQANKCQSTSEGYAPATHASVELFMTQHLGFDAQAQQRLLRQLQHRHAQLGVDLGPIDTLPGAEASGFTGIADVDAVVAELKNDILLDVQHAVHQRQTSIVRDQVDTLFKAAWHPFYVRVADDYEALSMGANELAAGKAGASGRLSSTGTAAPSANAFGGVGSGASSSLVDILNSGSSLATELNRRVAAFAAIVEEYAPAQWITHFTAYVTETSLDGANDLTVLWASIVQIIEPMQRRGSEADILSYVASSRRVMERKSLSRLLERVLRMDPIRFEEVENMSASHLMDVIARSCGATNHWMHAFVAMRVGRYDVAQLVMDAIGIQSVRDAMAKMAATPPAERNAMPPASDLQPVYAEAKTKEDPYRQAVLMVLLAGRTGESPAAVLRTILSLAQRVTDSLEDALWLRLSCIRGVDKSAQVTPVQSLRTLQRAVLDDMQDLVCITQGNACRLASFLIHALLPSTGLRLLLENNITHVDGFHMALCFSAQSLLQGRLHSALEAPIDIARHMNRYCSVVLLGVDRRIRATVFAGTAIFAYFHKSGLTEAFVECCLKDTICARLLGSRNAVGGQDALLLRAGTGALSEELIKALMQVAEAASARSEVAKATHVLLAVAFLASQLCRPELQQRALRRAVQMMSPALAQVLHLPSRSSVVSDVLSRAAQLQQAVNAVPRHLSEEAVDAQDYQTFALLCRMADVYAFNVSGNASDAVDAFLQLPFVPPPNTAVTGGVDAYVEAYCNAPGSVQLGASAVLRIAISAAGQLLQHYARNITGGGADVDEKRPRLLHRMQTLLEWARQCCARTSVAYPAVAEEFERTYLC
UniProt Q4QI58: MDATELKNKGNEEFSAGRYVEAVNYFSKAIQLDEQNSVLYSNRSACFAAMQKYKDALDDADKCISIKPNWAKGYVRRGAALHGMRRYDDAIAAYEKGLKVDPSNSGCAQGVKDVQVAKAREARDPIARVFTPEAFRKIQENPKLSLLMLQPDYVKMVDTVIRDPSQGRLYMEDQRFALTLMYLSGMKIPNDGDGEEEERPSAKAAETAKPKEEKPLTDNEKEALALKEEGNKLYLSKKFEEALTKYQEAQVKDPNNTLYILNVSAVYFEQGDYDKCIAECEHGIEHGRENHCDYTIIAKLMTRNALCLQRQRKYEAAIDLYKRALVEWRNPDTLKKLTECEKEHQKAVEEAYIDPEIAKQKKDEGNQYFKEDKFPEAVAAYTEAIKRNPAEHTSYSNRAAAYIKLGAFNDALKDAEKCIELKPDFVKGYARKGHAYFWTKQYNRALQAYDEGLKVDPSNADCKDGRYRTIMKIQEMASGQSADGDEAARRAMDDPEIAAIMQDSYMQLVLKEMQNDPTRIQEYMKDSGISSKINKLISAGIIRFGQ
UniProt E9ADW9: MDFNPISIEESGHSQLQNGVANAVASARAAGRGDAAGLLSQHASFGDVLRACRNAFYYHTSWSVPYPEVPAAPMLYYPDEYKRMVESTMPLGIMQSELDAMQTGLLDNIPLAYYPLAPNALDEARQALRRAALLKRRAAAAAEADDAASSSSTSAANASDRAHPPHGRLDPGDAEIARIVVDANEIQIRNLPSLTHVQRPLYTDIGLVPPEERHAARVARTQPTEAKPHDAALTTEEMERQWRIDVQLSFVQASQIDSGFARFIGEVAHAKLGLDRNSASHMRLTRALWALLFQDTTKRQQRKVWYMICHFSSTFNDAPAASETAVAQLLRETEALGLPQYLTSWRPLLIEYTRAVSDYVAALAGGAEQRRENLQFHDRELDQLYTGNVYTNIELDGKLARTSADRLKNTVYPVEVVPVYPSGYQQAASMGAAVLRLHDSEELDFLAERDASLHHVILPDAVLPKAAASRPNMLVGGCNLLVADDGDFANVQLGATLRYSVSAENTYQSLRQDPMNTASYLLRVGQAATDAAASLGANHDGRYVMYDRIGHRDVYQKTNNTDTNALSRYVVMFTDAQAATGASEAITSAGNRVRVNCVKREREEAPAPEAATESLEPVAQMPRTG
UniProt Q4QGN6: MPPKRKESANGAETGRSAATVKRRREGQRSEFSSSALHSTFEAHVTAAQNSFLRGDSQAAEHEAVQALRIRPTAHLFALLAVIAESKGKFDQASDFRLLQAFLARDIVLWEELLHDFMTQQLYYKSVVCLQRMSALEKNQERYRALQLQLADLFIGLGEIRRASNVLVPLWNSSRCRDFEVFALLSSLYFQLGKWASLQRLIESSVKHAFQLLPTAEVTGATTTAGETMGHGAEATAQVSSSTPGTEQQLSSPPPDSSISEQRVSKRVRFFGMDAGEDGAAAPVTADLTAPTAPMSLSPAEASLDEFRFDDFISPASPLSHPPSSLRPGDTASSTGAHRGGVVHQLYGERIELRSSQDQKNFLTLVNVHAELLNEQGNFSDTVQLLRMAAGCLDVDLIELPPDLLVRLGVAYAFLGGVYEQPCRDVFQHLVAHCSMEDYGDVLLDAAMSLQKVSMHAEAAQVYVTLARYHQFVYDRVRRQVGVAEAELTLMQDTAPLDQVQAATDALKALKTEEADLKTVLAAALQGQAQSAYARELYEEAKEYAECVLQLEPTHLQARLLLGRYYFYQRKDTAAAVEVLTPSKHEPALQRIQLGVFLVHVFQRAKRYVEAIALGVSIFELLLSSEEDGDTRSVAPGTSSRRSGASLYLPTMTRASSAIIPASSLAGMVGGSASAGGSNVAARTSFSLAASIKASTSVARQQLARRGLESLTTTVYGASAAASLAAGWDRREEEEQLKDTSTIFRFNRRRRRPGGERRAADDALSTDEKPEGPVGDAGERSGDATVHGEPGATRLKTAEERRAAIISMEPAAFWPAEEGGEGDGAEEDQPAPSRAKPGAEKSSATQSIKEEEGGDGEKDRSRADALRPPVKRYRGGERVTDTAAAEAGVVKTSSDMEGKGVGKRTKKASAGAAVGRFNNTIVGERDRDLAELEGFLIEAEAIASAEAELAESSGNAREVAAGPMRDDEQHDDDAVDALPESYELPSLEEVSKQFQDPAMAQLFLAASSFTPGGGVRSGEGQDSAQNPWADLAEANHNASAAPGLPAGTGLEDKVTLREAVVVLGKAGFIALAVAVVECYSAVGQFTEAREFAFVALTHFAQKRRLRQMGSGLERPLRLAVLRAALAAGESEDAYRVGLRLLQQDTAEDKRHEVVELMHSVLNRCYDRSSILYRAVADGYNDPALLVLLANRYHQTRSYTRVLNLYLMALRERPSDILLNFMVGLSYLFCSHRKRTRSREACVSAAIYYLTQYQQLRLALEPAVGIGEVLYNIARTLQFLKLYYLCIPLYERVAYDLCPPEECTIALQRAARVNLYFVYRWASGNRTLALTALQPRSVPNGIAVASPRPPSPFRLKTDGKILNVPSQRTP
UniProt Q4Q3Q3: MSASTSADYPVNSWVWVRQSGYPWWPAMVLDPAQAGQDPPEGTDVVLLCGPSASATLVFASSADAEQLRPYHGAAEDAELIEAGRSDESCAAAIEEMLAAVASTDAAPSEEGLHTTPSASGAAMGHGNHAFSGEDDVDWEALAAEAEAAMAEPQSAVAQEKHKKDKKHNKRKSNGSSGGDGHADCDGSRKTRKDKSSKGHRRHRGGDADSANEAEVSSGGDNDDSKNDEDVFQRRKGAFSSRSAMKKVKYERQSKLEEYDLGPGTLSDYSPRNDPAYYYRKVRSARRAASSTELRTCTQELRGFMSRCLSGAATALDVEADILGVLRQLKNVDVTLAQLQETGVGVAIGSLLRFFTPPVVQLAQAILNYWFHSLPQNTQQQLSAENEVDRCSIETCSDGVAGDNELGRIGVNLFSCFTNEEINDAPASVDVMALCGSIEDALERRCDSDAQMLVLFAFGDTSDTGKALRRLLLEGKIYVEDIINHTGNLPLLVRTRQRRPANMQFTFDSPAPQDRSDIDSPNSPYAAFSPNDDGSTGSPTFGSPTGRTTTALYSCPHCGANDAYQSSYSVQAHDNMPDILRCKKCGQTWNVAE
UniProt Q4QA19: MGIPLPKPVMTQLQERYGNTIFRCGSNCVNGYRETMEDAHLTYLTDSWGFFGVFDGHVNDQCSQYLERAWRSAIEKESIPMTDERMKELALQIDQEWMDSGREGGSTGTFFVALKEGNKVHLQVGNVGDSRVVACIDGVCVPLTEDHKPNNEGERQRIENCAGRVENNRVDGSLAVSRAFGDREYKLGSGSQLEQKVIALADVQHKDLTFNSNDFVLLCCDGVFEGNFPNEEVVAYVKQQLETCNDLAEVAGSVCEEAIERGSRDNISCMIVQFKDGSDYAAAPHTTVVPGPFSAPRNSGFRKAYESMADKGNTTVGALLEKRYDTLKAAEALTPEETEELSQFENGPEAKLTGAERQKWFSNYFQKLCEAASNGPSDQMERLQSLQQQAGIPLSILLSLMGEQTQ

In paper PMC7920299:

Target: LmBrf1-PTP (Leishmania major TFIIB-related factor 1 with a C-terminal PTP tag) (Leishmania major) (UniProt Q4QA51)
Experiment: affinity purification with mass spectrometry; tandem affinity purification of LmBrf1-PTP from whole-cell extracts of mid-log L. major promastigotes (IPP-150 buffer: 10 mM Tris-HCl pH 8.0, 150 mM NaCl, 0.1% NP-40; Triton X-100 lysis): IgG Sepharose, TEV protease elution, anti-Prot C matrix, EGTA elution, 4 °C; SDS-PAGE, in-gel tryptic digestion, LC-MS/MS; three experiments; mock purification with wild-type extract as control

PAF1 complex novel subunit (putative RTF1) (from UniProt Q4QFP6)
binding: binds

DNA replication licensing factor MCM4, putative (from UniProt Q4QI01)
binding: binds

ATP-dependent RNA helicase SUB2, putative (from UniProt Q4QC38)
binding: binds

Prohibitin, putative (from UniProt E9AEI4)
binding: binds

ATP-dependent RNA helicase FAL1, putative (from UniProt Q4Q8B2)
binding: binds

14-3-3 protein 1, putative (from UniProt Q4Q198)
binding: binds

FACT complex subunit SPT16 (from UniProt E9ADK4)
binding: binds

Staphylococcal nuclease homolog/Tudor domain-containing protein, putative (from UniProt Q4Q5I7)
binding: binds

La protein homolog (from UniProt Q4QCG1)
binding: binds

RPB5z (Pol I) (from UniProt Q4QDW3)
binding: binds

CCR4-NOT transcription complex subunit Not5 (from UniProt Q4Q9Q5)
binding: binds

ALBA-domain protein 3 (from UniProt Q4Q2T7)
binding: binds

CCR4-NOT transcription complex subunit Not1 (from UniProt Q4QCD3)
binding: binds

Mitogen-activated protein kinase 10, putative (from UniProt Q4QHJ8)
binding: binds

Replication factor C subunit 3, putative (from UniProt Q4Q084)
binding: binds

Transcription elongation factor TFIIS (from UniProt Q4Q3Q4)
binding: binds

Nucleoside diphosphate kinase B (from UniProt Q9U1E1)
binding: binds

High-mobility group protein TDP1 (from UniProt E9ADT8)
binding: binds

RPB2 (Pol II) (from UniProt Q4Q6P8)
binding: binds

Proliferative cell nuclear antigen (PCNA), putative (from UniProt Q4QF35)
binding: binds

PAF1 complex subunit LEO1 (from UniProt E9AFA9)
binding: binds

PAF1 complex subunit CTR9 (from UniProt E9AEB7)
binding: binds

RuvB-like DNA helicase, putative (from UniProt Q4Q2T4)
binding: binds

Regulatory subunit of protein kinase A-like (from UniProt Q4Q2R2)
binding: binds

Histone H4 (from UniProt Q4QJ78)
binding: binds

RPB1 (Pol II) (from UniProt Q4Q600)
binding: binds

DNA replication licensing factor MCM2, putative (from UniProt Q4Q8I2)
binding: binds

tRNA-binding domain-containing protein (from UniProt Q4QBU9)
binding: binds

META domain-containing protein (from UniProt Q4QEA3)
binding: binds

Nucleoporin NUP96 (from UniProt Q4Q1H0)
binding: binds

Stress-induced protein STI1 (from UniProt Q4QI58)
binding: binds

RPC1 (Pol III) (from UniProt Q4Q3H2)
binding: binds

Transcription elongation factor SPT6 (from UniProt Q4Q3M7)
binding: binds

RNA-binding protein 42 (RNA-binding motif protein 42), putative (from UniProt Q4Q6Y1)
binding: binds

PAF1 complex novel subunit (from UniProt E9ADW9)
binding: binds

KH domain-containing protein, putative (from UniProt E9ADB1)
binding: binds

Cdc2-related kinase 3 (from UniProt O96526)
binding: binds

TFIIIC subunit Tau131, putative (from UniProt Q4QGN6)
binding: binds

RNA-binding protein-like protein (from UniProt Q4QII7)
binding: binds

Protein Mkt1, putative (from UniProt Q4Q6U6)
binding: binds

TATA-binding protein (from UniProt Q4QD71)
binding: binds

TFIIS-like (from UniProt Q4Q3Q3)
binding: binds

Protein phosphatase 2C (from UniProt Q4QA19)
binding: binds

No constants are given. Whether binding was seen depends on the method and setting. In cells and extracts the contact can be indirect. Here binding means that the protein was enriched with, or labelled near, the bait; the list need not be complete.
